# Measurements published in PMC4653027.
# Amino acid sequences for entries named in this document (tags omitted).
# UniProt Q96EB6: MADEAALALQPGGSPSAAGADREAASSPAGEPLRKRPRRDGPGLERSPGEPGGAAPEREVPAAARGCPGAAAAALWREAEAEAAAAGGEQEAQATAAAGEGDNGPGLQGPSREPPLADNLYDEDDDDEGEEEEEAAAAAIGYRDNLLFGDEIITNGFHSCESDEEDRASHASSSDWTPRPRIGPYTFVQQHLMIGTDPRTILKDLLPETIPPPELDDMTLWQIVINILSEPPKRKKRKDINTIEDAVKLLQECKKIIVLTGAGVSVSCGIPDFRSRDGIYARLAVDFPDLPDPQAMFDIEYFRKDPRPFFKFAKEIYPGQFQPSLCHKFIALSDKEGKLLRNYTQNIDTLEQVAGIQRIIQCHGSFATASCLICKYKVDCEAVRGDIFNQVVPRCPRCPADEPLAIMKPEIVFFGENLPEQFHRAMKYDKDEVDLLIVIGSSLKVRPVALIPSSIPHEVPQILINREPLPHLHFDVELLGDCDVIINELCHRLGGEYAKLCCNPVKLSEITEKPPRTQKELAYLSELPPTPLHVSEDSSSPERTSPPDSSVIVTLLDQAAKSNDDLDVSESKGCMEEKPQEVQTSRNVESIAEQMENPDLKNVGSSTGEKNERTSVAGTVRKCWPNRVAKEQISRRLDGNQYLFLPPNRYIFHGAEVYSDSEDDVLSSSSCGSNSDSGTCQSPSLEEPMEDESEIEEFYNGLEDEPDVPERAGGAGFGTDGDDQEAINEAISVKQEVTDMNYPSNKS
# UniProt P00441: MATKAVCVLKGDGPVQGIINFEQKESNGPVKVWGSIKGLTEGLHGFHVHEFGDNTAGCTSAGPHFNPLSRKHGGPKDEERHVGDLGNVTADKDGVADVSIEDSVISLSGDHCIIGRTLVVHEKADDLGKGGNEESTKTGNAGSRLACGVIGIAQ
# Results are given in words; binding and its absence hold for the method and conditions named. In cells and extracts the contact can be indirect. Some binding calls cover weakened binding; strength is not graded here.
# Molecular target: Flag-tagged SIRT1 wildtype (Sirtuin 1) (UniProt Q96EB6)
# Test: co-IP; HA-tagged SOD1 co-transfected with Flag-tagged SIRT1 into HCT-116 cells, anti-Flag agarose, SOD1 detected by immunoblotting
substance,measurement,value
HA-tagged SOD1 (from UniProt P00441 1-154) (enzyme),binding,binds
